From ChEMBL document CHEMBL3988442, “University of Dundee, Small-Polar-MMV Screening Library” (2021).

By UniProt entry, the sequences of proteins in these tests, tags left out. Residues count along the entry.
UniProt A4I591, 1-473: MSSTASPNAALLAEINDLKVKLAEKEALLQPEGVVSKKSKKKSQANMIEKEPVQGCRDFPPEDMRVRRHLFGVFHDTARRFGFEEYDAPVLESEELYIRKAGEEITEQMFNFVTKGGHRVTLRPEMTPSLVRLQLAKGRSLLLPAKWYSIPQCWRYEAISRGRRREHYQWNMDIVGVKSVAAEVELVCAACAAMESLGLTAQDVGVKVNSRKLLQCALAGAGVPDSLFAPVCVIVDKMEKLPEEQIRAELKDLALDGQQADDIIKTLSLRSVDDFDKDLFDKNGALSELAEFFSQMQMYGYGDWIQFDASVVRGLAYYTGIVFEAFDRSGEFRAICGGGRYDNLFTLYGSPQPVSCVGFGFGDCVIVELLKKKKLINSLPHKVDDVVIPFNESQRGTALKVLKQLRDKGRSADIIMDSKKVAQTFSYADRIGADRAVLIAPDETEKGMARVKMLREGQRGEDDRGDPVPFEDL
UniProt I6X8D2, whole entry: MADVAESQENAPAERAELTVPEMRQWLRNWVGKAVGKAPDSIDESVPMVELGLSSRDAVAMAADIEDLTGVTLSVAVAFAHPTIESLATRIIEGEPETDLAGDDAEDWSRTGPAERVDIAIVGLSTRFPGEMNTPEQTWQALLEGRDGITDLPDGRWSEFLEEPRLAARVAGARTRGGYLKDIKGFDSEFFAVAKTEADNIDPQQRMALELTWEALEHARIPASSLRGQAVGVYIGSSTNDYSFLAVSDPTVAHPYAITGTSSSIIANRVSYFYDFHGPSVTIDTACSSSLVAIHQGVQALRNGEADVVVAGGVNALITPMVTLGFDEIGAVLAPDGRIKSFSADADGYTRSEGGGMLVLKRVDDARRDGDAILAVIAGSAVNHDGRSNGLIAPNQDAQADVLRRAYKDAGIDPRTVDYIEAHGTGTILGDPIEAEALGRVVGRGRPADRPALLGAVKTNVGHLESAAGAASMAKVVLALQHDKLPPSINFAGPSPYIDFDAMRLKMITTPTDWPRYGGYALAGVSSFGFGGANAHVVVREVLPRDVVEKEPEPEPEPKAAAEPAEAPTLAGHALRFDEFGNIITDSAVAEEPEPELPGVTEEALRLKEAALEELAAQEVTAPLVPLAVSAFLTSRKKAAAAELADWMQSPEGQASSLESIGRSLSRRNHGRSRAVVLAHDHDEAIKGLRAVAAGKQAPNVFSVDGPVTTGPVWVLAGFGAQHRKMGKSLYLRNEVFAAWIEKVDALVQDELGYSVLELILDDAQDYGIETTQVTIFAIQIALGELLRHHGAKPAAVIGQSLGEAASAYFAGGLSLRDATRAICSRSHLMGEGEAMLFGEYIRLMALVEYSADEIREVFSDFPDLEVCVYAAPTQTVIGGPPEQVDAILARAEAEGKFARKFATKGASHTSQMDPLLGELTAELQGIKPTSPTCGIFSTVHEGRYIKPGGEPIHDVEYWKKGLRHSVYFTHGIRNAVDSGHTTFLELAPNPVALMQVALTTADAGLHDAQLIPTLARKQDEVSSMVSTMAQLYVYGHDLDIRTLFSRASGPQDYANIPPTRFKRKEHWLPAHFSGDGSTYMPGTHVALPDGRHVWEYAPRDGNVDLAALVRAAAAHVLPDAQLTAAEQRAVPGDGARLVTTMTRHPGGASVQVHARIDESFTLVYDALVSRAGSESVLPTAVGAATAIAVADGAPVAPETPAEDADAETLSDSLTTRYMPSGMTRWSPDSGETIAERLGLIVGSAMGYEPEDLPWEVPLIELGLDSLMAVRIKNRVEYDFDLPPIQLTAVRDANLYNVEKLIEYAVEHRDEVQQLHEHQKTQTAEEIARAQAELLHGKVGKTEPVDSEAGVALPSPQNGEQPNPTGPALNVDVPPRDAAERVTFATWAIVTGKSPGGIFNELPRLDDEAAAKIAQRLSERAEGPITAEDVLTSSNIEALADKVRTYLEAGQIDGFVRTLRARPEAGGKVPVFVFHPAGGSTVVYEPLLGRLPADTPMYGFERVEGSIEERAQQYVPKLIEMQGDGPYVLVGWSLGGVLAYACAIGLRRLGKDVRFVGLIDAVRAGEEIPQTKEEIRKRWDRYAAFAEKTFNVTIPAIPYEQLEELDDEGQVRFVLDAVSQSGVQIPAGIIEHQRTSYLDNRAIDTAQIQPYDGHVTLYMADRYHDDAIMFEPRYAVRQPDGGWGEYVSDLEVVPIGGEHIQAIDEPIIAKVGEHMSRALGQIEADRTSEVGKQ

Leishmania in macrophages: 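Cell assay of Leishmania donovani living inside macrophages; the read-out is not stated. Tested at 30 µM. Higher reads as stronger inhibition (inferred: compounds with an IC50 in retests scored well above the rest). Size under these conditions: about 69,000 compounds, about 1,000 of them at 50% or above in at least one test.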
LiHisRS: 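Histidine-tRNA ligase, Leishmania infantum (UniProt A4I591). Enzyme assay of histidyl-tRNA synthetase; the read-out is not stated. Compounds at 30 µM. The record gives no direction; compounds that gave an IC50 in retests scored well above the rest, so higher reads as stronger inhibition. The assay is labelled LdHisRS but filed under L. infantum. Size under these conditions: about 69,000 compounds, about 410 of them at 50% or above in at least one test.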
Pks13 thioesterase: 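Enzyme assay of the thioesterase domain of polyketide synthase 13; the read-out is not stated. Target: Polyketide synthase Pks13, Mycobacterium tuberculosis (UniProt I6X8D2). Concentration: 30 µM. Higher reads as stronger inhibition (inferred from which compounds were picked for retests). About 67,000 compounds were tested under these conditions; 0.46% (about 300) showed 50% or more at least once.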

Values are the deposited “Percent Effect”, in %.
The record does not define 0% and 100%; most values in the screen are far below 50% and negative numbers occur (in some assays of this library far below -100).
The compounds are a random part of those screened.

- CC(C)Nc1ncnc2c1CCN(C(=O)[C@H]1CCCO1)CC2 : Leishmania in macrophages: 29.14%; LiHisRS: 19.27%; Pks13 thioesterase: -10.11%
- CC(C)CC(NC(=O)c1ccco1)c1nnc2ccccn12 (stereo not shown) : Leishmania in macrophages: 5.561%; LiHisRS: 12.09%; Pks13 thioesterase: -12.87%
- COc1ccc(NC(=O)CCNc2ncccn2)cn1 : Leishmania in macrophages: -0.9656%; LiHisRS: 10.53%; Pks13 thioesterase: -25.05%
- Cc1nc(NS(=O)(=O)c2ccc(C)c(Br)c2)no1 : Leishmania in macrophages: 15.05%; LiHisRS: 13.98%; Pks13 thioesterase: -10.85%
- CN(C)C(=O)CNC(=O)c1cc2c(s1)CCN2S(C)(=O)=O : Leishmania in macrophages: -2.855%; LiHisRS: -12.5%; Pks13 thioesterase: -11.91%
- CSc1nc(N)cc(N2C[C@@H]3CC[C@H](C2)N(Cc2cscn2)C3=O)n1 : LiHisRS: 10.96%; Pks13 thioesterase: -33.84%
- CCc1nc(NS(=O)(=O)c2ccc(C)cc2Cl)no1 : Leishmania in macrophages: 14.65%; LiHisRS: 14.56%; Pks13 thioesterase: 8.913%
- O=C(COCC1CC1)Nc1ccn(Cc2cccc3cccnc23)n1 : Leishmania in macrophages: -5.711%; LiHisRS: 4.839%; Pks13 thioesterase: -5.7%
- [H][C@]12CC[C@]([H])(CN(Cc3cscn3)C1)N(C(=O)Cc1ccccc1OC)C2 : Leishmania in macrophages: -17.19%
- Cc1cc(C(=O)NCc2ccc(N3CCN(C)CC3)nc2)c(C)s1 : Leishmania in macrophages: 11.85%; LiHisRS: 5.505%; Pks13 thioesterase: -23.36%
- CSCCc1c(-c2ccccc2)ncn1CCNc1cccnc1 : Leishmania in macrophages: 0.4679%; LiHisRS: 21.13%; Pks13 thioesterase: -14.35%
- CC(C)CC(NC(=O)C1=CCCC1)C(=O)N1CCC(CO)CC1 (stereo not shown) : Leishmania in macrophages: -5.044%; LiHisRS: 10.96%; Pks13 thioesterase: -11.95%
- Cn1ccnc1CN1C[C@H]2CN(S(=O)(=O)c3ccccc3)CCN2C1=O : LiHisRS: 29.73%; Pks13 thioesterase: -28.6%
- Cc1ccc(-c2nc(CC(=O)NCC(C)N3CCOCC3)cs2)o1 (stereo not shown) : Leishmania in macrophages: 9.913%; LiHisRS: 10.53%; Pks13 thioesterase: 14.22%
- CCCc1nc(N2CCCC(C)C2)c2c(n1)c(C)nn2CC (stereo not shown) : Leishmania in macrophages: 38.7%; LiHisRS: 10.34%; Pks13 thioesterase: -4.244%
- O=C(Cc1ccc2c(c1)OCCCO2)Nc1nnn[nH]1 : Leishmania in macrophages: -27.89%; LiHisRS: 21.74%; Pks13 thioesterase: 2.622%
- O=C(O)C(F)(F)F.O=C1NC2(CCN(C(=O)c3ccccc3)CC2)CC1c1cccnc1 (stereo not shown) : Leishmania in macrophages: 18.43%
- COCCN1CCC2(CC1)CC(N1CCOCC1)c1cc(C)ccc12 (stereo not shown) : LiHisRS: 10%; Pks13 thioesterase: -3.619%
- Cc1n[nH]c(C)c1NC(=O)CN1CCn2c(nnc2C(C)C)C1 : Leishmania in macrophages: 4.318%; LiHisRS: 8%
- CN1CCN(c2ccc(NC(=O)c3cccs3)c(C(F)(F)F)c2)CC1 : Leishmania in macrophages: 8.688%; LiHisRS: 18.31%; Pks13 thioesterase: -12.79%
- Cc1noc(C)c1CN1C(=O)[C@H]2CC[C@@H]1CN(Cc1ncc[nH]1)C2 : LiHisRS: 3.03%; Pks13 thioesterase: -25.39%
- OCc1ccc(N2CCN(c3ncccn3)CC2)c(F)c1 : Leishmania in macrophages: -18.93%; LiHisRS: 23.08%; Pks13 thioesterase: -11.08%
- Cn1nc(C2CC2)c2c1NC(=O)CC2c1ccc(CN2CCCCC2)s1 (stereo not shown) : Leishmania in macrophages: 27.18%; LiHisRS: 9.677%; Pks13 thioesterase: -9.203%
- CCN(Cc1noc(C)n1)C(=O)CCn1c(C)cc2ccccc21 : Leishmania in macrophages: 21.88%; LiHisRS: 23.53%; Pks13 thioesterase: -9.728%

Once more, the final 2:

structure	Leishmania in macrophages	LiHisRS	Pks13 thioesterase
Cn1nc(C2CC2)c2c1NC(=O)CC2c1ccc(CN2CCCCC2)s1 (stereo not shown)	27.18	9.677	-9.203
CCN(Cc1noc(C)n1)C(=O)CCn1c(C)cc2ccccc21	21.88	23.53	-9.728